The list shows a part of the results.
What was measured:
Test in all cases: log2 fold change, soluble protein after heating vs DMSO (PISA); higher = thermal stabilisation; K562 lysate, 10 uM; active = over 0.2 and 3.5 SD of the protein, either way, in both replicates (recomputed)
[1] = compound: C#Cc1cccc(Nc2ncnc3cc(OCCOC)c(OCCOC)cc23)c1 [erlotinib]
Procedure, shortened: (§1)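 Soluble protein was defined as the supernatant remaining after 21,000xg for 90 min, following pooling of heated aliquots and adjustment to 0.5% NP-40 at 4°C. Before that, crude K562 extract at 1 mg/mL protein in PBS pH 7.4 with 1 mM MgCl2 was treated with 10 μM compound for 30 min and heated for 3 min across 48°C-58°C. Quantification used TMTpro 16plex LC-MS/MS with channel sums equalised, and values are log-two fold changes in thermal stability relative to solvent controls from duplicates.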

Amino acid sequences for entries named in this document (tags omitted). A change or cut given only in a name is not applied to a line headed by its entry.
UniProt Q9NRF9: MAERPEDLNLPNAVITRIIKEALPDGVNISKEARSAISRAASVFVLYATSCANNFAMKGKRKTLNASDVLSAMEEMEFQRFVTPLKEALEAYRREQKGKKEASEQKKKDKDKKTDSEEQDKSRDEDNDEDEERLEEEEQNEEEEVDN
UniProt O60568: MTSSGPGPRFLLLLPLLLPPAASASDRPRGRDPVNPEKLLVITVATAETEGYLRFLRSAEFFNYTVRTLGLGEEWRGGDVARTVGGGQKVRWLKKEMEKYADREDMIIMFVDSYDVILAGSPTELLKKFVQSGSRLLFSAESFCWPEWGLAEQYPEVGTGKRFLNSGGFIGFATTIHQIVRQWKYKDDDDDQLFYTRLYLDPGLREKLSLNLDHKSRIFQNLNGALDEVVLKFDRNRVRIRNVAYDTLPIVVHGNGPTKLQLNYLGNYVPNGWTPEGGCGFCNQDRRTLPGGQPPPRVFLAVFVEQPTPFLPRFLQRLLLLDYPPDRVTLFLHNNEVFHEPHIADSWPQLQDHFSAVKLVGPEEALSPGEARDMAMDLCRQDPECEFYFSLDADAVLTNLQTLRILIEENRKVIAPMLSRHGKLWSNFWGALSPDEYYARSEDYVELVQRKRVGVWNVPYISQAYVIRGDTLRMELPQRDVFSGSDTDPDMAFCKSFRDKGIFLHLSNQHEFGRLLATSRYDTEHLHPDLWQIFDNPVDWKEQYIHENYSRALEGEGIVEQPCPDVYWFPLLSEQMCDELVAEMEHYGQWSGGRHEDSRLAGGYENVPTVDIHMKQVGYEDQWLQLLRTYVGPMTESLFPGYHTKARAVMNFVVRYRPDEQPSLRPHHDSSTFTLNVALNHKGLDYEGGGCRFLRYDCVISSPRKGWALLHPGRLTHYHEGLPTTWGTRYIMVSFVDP
UniProt Q96HA1, whole entry, looked up: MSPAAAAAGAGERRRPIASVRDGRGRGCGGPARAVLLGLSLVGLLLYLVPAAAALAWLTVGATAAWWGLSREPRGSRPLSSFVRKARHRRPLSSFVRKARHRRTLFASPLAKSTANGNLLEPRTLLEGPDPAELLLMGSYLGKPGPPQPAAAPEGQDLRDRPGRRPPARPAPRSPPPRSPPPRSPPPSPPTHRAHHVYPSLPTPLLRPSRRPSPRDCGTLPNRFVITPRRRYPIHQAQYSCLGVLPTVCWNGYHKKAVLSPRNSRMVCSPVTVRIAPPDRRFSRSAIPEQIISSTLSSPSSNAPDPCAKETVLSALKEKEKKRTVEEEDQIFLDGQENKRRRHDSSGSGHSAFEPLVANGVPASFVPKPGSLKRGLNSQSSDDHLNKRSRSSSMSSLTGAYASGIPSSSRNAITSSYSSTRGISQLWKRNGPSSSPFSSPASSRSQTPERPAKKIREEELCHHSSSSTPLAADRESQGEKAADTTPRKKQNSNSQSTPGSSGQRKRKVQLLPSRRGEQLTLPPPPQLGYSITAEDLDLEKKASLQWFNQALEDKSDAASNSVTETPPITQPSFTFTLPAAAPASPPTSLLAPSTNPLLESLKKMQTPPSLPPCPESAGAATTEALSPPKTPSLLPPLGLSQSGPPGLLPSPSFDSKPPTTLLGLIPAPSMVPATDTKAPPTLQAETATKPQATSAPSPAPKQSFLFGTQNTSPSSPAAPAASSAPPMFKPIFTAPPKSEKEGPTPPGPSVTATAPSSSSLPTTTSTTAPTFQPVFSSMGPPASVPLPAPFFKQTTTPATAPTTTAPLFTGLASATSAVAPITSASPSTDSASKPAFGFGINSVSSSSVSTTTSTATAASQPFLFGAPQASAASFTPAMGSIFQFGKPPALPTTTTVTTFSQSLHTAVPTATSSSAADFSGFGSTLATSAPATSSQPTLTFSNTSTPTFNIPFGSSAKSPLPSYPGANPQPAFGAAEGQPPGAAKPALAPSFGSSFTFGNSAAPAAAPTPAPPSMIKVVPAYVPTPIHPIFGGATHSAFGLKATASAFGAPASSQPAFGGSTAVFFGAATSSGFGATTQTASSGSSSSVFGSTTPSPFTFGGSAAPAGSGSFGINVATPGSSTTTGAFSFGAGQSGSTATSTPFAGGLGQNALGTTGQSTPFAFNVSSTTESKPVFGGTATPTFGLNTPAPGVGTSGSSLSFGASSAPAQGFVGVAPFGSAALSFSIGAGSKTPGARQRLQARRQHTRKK
UniProt Q9NR33: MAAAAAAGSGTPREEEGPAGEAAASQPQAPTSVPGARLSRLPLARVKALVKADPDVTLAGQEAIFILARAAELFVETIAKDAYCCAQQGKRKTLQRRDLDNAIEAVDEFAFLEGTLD
UniProt A5A3E0, whole entry, looked up: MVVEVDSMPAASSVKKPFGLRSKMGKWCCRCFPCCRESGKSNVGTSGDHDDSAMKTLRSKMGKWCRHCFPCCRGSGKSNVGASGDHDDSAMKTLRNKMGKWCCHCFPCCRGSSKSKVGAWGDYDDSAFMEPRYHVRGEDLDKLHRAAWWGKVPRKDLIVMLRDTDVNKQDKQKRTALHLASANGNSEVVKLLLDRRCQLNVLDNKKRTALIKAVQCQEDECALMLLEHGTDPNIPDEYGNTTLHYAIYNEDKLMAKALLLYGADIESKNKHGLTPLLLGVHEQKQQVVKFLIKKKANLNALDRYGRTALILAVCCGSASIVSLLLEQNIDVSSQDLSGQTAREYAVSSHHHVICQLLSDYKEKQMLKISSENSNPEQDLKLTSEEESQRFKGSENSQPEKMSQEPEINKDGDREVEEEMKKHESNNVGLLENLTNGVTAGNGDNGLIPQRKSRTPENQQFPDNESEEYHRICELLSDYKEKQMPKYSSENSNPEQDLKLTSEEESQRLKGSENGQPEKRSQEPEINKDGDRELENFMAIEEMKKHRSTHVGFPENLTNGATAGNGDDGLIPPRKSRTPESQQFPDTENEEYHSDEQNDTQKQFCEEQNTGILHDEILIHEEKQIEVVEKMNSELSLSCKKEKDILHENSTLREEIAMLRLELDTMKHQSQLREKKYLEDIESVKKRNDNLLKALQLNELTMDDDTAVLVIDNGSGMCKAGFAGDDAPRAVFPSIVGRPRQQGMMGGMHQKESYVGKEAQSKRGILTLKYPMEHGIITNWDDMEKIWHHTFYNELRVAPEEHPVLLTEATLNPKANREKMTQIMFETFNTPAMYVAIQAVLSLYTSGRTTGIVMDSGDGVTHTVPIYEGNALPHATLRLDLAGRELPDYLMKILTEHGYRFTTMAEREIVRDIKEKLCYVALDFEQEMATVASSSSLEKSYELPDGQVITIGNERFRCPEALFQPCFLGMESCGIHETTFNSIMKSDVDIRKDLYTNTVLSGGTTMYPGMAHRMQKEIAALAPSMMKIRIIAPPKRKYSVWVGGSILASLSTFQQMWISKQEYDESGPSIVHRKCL
UniProt P51805: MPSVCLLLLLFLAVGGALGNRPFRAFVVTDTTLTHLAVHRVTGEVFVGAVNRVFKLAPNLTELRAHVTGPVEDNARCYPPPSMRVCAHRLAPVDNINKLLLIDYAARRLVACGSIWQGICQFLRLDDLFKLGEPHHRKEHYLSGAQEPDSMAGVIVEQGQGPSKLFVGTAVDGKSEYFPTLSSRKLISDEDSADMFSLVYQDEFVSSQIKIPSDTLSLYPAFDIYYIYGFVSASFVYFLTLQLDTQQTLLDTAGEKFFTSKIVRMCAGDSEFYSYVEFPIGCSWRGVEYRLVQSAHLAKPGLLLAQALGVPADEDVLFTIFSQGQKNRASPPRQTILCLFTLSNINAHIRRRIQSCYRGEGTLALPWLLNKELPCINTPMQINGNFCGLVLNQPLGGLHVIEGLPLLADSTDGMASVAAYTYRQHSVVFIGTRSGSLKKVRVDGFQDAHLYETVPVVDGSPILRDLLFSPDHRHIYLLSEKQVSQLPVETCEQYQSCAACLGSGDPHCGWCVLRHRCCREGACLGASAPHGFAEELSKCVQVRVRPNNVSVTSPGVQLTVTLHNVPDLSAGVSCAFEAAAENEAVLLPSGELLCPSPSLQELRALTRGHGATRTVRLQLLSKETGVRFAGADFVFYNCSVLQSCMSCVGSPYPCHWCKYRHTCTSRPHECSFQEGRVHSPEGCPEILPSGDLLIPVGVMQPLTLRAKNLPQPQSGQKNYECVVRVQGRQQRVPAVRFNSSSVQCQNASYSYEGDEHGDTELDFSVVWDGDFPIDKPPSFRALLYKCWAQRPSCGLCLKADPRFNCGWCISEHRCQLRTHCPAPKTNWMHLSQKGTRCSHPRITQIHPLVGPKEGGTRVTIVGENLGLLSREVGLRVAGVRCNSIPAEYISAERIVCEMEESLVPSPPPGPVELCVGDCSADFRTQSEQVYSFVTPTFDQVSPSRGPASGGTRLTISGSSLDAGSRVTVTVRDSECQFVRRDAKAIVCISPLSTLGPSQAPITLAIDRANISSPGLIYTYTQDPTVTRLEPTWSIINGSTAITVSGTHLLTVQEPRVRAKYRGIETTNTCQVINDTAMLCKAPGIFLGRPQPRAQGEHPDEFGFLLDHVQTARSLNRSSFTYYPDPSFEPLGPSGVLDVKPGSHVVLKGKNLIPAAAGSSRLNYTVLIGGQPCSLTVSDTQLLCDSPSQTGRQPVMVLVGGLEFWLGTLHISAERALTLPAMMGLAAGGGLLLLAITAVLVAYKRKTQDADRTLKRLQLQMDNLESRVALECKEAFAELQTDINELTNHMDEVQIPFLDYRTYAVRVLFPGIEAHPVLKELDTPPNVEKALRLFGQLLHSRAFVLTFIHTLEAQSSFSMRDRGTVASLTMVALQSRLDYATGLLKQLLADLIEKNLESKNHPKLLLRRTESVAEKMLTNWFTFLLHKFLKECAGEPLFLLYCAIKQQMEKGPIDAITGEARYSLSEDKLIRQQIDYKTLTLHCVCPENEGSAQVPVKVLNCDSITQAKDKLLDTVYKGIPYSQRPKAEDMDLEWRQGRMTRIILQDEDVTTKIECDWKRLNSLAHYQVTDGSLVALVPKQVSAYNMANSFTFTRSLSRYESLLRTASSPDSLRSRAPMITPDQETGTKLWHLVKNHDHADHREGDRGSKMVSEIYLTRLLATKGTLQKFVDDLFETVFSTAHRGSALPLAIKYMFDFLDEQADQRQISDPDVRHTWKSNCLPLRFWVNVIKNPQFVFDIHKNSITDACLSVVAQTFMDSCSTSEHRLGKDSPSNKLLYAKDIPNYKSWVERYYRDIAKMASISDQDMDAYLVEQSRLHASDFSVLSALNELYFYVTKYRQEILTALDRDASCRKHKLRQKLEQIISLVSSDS
UniProt Q9Y244: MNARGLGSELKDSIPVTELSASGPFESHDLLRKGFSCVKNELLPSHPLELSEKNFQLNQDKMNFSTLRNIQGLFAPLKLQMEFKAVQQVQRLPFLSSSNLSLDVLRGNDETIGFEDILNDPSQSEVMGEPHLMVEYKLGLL
UniProt Q92871: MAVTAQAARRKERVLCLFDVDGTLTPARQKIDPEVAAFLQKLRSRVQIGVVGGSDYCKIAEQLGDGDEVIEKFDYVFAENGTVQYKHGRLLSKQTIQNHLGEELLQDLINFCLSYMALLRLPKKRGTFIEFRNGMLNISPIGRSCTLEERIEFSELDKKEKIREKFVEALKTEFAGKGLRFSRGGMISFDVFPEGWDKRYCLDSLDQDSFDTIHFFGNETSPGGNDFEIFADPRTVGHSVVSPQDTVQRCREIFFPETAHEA
UniProt Q6T4P5: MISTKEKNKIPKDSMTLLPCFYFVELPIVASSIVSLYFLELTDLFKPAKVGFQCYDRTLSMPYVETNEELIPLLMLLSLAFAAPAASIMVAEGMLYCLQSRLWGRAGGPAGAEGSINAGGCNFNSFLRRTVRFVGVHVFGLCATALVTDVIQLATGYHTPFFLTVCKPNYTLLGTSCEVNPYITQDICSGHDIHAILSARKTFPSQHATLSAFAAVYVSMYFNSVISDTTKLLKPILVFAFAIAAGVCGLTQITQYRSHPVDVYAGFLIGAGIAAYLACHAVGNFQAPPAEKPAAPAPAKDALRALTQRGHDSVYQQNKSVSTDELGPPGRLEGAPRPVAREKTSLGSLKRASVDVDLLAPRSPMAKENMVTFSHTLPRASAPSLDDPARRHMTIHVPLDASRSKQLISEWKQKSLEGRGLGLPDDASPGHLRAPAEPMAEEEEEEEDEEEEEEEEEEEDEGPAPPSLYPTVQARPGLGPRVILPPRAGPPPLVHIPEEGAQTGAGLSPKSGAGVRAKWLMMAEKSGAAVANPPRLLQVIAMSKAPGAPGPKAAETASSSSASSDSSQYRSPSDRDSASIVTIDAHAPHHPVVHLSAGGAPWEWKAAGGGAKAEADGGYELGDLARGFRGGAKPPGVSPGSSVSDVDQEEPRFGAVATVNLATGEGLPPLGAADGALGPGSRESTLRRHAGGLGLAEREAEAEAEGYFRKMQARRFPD

[2] = compound: C/C(=N\NC(=O)C1=CC(=CC=C1)S(=O)(=O)N2CCOCC2)/C3=C(C=CC(=C3)Cl)O
Procedure, shortened: as §1

[3] = compound: C1=CC(=CC=C1C2=NC3=C(N2)C=C(C=C3)C(=O)N)OC4=CC=C(C=C4)Cl
Procedure, shortened: as §1

[4] = compound: C1=CC2=C(C=CC(=C2)/C=C\3/C(=O)NC(=NCC4=CC=CS4)S3)N=C1
Procedure, shortened: as §1

[5] = compound: C1=CC2=NC=CN=C2C=C1/C=C/3\C(=O)NC(=O)S3
Procedure, shortened: as §1

[6] = compound: C1=CC=C(C=C1)C2=NC(=C(N2)C3=CC=NC=C3)C4=CC(=C(C=C4)Cl)O
Procedure, shortened: as §1

[7] = compound: C1=CC=C2C(=C1)C3=NNC4=CC=CC(=C43)C2=O
Procedure, shortened: as §1

[8] = compound: C1CCN(C1)C(=O)NC2=CC=CC(=C2)NC3=NC=C(C(=N3)NCCC4=CN=CN4)Br
Procedure, shortened: as §1

[9] = compound: C1CN(CCC1(CC2=CC=C(C=C2)Cl)N)C3=NC=NC4=C3C=CN4
Procedure, shortened: as §1

[10] = compound: C1COCCN1CCN2C3=CC=CC=C3N=C2NC(=O)C4=CC(=CC=C4)[N+](=O)[O-] [IRAK-1-4 Inhibitor I]
Procedure, shortened: as §1

[11] = compound: C=CC(=O)N1CCC[C@@H](n2nc(-c3ccc(Oc4ccccc4)cc3)c3c(N)ncnc32)C1 [ibrutinib]
Procedure, shortened: as §1

[12] = compound: CC(=O)c1cnc2ccc(-c3cc(Cl)c(O)c(Cl)c3)nc2c1N[C@H]1CC[C@H](CN(C)C)CC1
Procedure, shortened: as §1

[13] = compound: CC(C)(C)Cn1c(N)nc2ccc(-c3[nH]c(C(C)(C)C)nc3-c3ccc(F)cc3)nc21 [ralimetinib]
Procedure, shortened: as §1

[14] = compound: CC(C)(O)CC(=O)NCCn1ccc2ncnc(Nc3ccc(Oc4cccc(C(F)(F)F)c4)c(Cl)c3)c21
Procedure, shortened: as §1

[15] = compound: CC(C)C1=C2N=C(C=C(N2N=C1)NCC3=CC=CC=C3)NCCCCCCN
Procedure, shortened: as §1

[16] = compound: CC1=C(C(CC(=O)N1)C2=CC=C(C=C2)C(F)(F)F)C(=O)NC3=C(C=C4C(=C3)C=NN4)F
Procedure, shortened: as §1

[17] = compound: CC1=C(C2=C(C=C1)C(=O)C3=CC=CC=C3N2CCCN)C
Procedure, shortened: as §1

[18] = compound: CC1=C(C=C(C=C1)NC(=O)C2=CC(=CC=C2)C(C)(C)C#N)NC3=CC4=C(C=C3)N=CN(C4=O)C
Procedure, shortened: as §1

[19] = compound: CC1=C(C=C(C=C1)NC(=O)C2=CC(=CC=C2)N(C)C)NC(=O)C3=CC=C(C=C3)O
Procedure, shortened: as §1

[20] = compound: CC1=CC=C(C=C1)SC2=C3C=C(SC3=CN=C2)C(=O)N
Procedure, shortened: as §1

Measured: log2 fold change

POLE3 (UniProt Q9NRF9)
inactive: [1] -0.009 | [2] 0.014 | [3] 0.009 | [4] -0.017 | [5] -0.031 | [6] 0.031 | [7] 0.024 | [8] 0.005 | [9] 0.028 | [10] 0.013 | [11] -0.03 | [12] 0.017 | [13] -0.048 | [14] -0.014 | [15] 0.012 | [16] -0.028 | [17] 0.008 | [18] -0.065 | [19] -0.026 | [20] 0.003

PLOD3 (UniProt O60568)
inactive: [1] -0.008 | [2] 0.003 | [3] 0.003 | [4] -0.004 | [5] 0.013 | [6] -0.018 | [7] 0.024 | [8] 0.025 | [9] 0.013 | [10] -0.014 | [11] 0.002 | [12] 0.013 | [13] 0.011 | [14] 0.028 | [15] 0.004 | [16] 0.039 | [17] 0.036 | [18] -0.018 | [19] -0.005 | [20] 0.031

POLR2B (UniProt P30876)
inactive: [1] 0.031 | [2] 0.019 | [3] -0.014 | [4] 0.012 | [5] -0.016 | [6] -0.008 | [7] -0.024 | [8] 0.002 | [9] -0.004 | [10] -0.007 | [11] -0.011 | [12] -0.017 | [13] 0.025 | [14] -0.018 | [15] 0.005 | [16] 0.029 | [17] -0.031 | [18] -0.014 | [19] 0.028 | [20] 0.032

POLR2L (UniProt P62875)
inactive: [1] 0.089 | [2] -0.061 | [3] -0.118 | [4] 0.05 | [5] 0.179 | [6] -0.011 | [7] -0.03 | [8] -0.053 | [9] 0.132 | [10] 0.047 | [11] -0.005 | [12] 0.012 | [13] -0.035 | [14] -0.002 | [15] -0.083 | [16] 0.022 | [17] 0.036 | [18] -0.055 | [19] -0.095 | [20] -0.011

POM121 (UniProt Q96HA1)
inactive: [1] -0.012 | [2] -0.029 | [3] -0.069 | [4] 0.008 | [5] -0.008 | [6] -0.018 | [7] -0.001 | [8] -0.145 | [9] -0.017 | [10] 0.163 | [11] 0.015 | [12] 0.075 | [13] -0.04 | [14] 0.006 | [15] -0.037 | [17] -0.1 | [18] 0.022 | [19] 0.09 | [20] 0.048

POLE4 (UniProt Q9NR33)
inactive: [1] -0.024 | [2] -0.319 | [3] 0.049 | [4] 0.02 | [5] -0.014 | [6] 0.013 | [7] -0.067 | [8] -0.018 | [9] 0.091 | [10] 0.039 | [11] 0.012 | [12] 0.011 | [13] -0.007 | [14] -0.01 | [15] 0.073 | [16] -0.209 | [17] -0.031 | [18] 0.162 | [19] 0.032 | [20] -0.008

POTEF (UniProt A5A3E0)
inactive: [1] -0.006 | [2] 0.029 | [3] 0.027 | [4] 0.083 | [5] 0.019 | [6] -0.015 | [7] 0.042 | [8] -0.031 | [9] 0.049 | [10] 0.012 | [11] -0.01 | [12] -0.022 | [13] 0.028 | [14] -0.02 | [15] -0.026 | [16] -0.021 | [17] 0.02 | [18] 0.049 | [19] 0 | [20] 0.004

2 records picked at random from the list so far, as already listed:
POLE4 (UniProt Q9NR33)
inactive: [1] -0.024 | [2] -0.319 | [3] 0.049 | [4] 0.02 | [5] -0.014 | [6] 0.013 | [7] -0.067 | [8] -0.018 | [9] 0.091 | [10] 0.039 | [11] 0.012 | [12] 0.011 | [13] -0.007 | [14] -0.01 | [15] 0.073 | [16] -0.209 | [17] -0.031 | [18] 0.162 | [19] 0.032 | [20] -0.008

POTEF (UniProt A5A3E0)
inactive: [1] -0.006 | [2] 0.029 | [3] 0.027 | [4] 0.083 | [5] 0.019 | [6] -0.015 | [7] 0.042 | [8] -0.031 | [9] 0.049 | [10] 0.012 | [11] -0.01 | [12] -0.022 | [13] 0.028 | [14] -0.02 | [15] -0.026 | [16] -0.021 | [17] 0.02 | [18] 0.049 | [19] 0 | [20] 0.004

(cont.)

PLXNA3 (UniProt P51805)
inactive: [1] 0.223 | [2] -0.276 | [3] 0.068 | [4] -0.346 | [5] 0.068 | [6] 0.004 | [7] 0.155 | [8] -0.11 | [9] -0.036 | [10] 0.021 | [11] -0.03 | [12] 0.004 | [13] -0.042 | [14] -0.13 | [15] -0.017 | [18] 0.114 | [19] 0.031 | [20] -0.129

POMP (UniProt Q9Y244)
inactive: [1] 0.058 | [2] -0.022 | [3] -0.001 | [4] 0.05 | [5] -0.003 | [6] -0.024 | [7] -0.08 | [8] -0.099 | [9] 0.048 | [10] -0.023 | [11] -0.025 | [12] -0.043 | [13] -0.001 | [14] -0.033 | [15] -0.013 | [16] 0.016 | [17] -0.09 | [18] 0.048 | [19] 0.027 | [20] -0.001

PMM1 (UniProt Q92871)
inactive: [1] 0.022 | [2] 0.051 | [3] 0.048 | [4] 0.022 | [5] -0.217 | [6] -0.078 | [7] -0.01 | [8] 0.021 | [9] 0.038 | [10] -0.013 | [11] -0.075 | [13] -0.016 | [14] -0.069 | [15] -0.009 | [16] 0.024 | [17] 0.03 | [18] 0.052 | [19] 0.012

PLPPR3 isoform 3 (UniProt Q6T4P5)
inactive: [6] 0.235 | [10] -0.016 | [13] 0.232 | [14] -0.171 | [17] 0.068 | [19] -0.101

POLR2J (UniProt P52435)
inactive: [1] 0.071 | [3] -0.018 | [5] 0.12 | [6] -0.023 | [8] -0.022 | [9] 0.003 | [10] -0.003 | [11] 0.039 | [12] 0.07 | [13] 0 | [14] -0.035 | [15] 0.032 | [16] 0.023 | [17] 0.001 | [18] 0.048 | [19] 0.07 | [20] 0.094

— the supplement of paper PMC10849652
